Measured values reported in article doi:10.1101/723288.
Results are given in words; binding and its absence hold for the method and conditions named. Binding seen in cells or lysates may run through a third protein. Some entries that bind do so weakly or less than the wild type.

Protein sequences, listed by entry. Tags and fused reporters are not part of them.
UniProt P23678: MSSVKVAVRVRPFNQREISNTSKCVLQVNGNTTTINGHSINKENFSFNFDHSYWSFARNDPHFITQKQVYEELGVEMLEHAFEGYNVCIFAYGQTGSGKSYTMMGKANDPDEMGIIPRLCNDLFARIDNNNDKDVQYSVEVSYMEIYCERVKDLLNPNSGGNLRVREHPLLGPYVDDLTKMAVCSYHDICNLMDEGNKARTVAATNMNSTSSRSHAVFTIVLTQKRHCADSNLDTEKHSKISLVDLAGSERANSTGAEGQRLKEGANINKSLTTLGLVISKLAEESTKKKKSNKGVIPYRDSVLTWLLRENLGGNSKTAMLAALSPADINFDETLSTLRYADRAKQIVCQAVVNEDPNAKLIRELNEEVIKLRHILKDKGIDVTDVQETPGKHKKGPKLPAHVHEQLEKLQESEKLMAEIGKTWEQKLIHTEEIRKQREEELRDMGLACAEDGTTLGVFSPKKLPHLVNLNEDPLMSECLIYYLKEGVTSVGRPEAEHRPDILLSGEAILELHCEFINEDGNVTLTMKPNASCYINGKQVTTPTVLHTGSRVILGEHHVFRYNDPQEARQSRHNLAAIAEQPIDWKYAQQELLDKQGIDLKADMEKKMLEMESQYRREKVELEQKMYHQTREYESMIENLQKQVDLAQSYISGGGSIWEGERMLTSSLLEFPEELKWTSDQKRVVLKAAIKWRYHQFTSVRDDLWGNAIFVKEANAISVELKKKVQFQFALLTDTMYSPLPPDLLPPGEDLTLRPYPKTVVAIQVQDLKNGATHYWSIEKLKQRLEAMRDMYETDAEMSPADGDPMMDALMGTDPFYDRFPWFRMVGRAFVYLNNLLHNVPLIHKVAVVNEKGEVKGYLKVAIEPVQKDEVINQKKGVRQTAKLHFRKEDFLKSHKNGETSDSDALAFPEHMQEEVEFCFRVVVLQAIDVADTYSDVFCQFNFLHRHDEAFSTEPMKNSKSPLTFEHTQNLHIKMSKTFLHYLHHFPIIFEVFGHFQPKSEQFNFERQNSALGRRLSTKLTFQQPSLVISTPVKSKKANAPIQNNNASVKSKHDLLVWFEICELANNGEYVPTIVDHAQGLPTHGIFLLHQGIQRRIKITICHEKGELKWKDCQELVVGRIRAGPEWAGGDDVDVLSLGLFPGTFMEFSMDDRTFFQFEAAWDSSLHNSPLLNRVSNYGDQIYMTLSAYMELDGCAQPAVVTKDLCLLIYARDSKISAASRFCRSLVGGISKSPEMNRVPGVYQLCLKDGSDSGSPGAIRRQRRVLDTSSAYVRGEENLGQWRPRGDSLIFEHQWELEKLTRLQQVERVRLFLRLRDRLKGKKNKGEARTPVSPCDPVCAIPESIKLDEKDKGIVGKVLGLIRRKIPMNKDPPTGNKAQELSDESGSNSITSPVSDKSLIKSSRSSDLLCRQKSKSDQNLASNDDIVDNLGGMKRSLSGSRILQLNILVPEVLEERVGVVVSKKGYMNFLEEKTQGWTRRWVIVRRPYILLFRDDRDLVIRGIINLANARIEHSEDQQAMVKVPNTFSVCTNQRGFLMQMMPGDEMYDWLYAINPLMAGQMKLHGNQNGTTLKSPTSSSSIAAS
UniProt Q21049: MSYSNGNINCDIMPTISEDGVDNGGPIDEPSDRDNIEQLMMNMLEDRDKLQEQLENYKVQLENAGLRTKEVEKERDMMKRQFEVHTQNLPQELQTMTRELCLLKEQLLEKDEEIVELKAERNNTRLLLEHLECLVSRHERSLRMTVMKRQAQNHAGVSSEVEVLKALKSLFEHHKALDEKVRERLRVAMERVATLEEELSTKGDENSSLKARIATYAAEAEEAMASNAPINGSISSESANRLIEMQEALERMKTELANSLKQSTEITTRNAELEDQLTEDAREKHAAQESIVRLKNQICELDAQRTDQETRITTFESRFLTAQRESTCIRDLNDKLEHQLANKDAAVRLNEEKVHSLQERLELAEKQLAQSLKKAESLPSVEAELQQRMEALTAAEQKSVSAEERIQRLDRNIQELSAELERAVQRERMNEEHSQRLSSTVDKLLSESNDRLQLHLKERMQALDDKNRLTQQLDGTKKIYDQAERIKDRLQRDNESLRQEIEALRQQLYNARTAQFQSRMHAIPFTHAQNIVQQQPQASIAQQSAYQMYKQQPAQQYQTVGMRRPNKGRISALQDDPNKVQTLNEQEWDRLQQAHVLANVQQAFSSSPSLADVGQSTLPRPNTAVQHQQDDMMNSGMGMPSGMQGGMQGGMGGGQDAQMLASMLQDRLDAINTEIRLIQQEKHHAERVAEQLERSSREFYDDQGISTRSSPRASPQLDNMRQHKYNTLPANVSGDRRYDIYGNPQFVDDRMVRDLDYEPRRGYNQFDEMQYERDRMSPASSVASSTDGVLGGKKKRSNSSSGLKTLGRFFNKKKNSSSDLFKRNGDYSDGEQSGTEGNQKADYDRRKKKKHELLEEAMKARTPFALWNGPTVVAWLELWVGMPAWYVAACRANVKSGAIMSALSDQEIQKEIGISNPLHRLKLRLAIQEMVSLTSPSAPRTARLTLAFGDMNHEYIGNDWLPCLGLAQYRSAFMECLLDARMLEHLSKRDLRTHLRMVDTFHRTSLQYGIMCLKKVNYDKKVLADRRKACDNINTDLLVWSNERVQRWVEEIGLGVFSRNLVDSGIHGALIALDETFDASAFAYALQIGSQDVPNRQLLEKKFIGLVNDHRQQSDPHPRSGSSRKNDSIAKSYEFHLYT

Target: UNC-104::GFP (C. elegans) (UniProt P23678)
Experiment: co-IP

binding: binds
Substance: SYD-2 (from UniProt Q21049 1-1139)
